Data taken from PubChem BioAssay AID651803 (National Center for Advancing Translational Sciences (NCATS), 2012).
Among all 1,200 compounds or so, fewer than 10 were called active. Calls come from the whole dose curve; as a rule, active = well fitted curve in the direction sought with a large enough effect; inconclusive = small, poorly fitted or top-dose-only effect, or another doubt; inactive = no such curve, though single readings can be large or run the other way. The list shows a part of the results.

By UniProt entry, the sequences of proteins in these tests, tags left out. Where a name states a change or a piece, a line headed by the entry shows the natural chain unless it says otherwise.
UniProt P11308: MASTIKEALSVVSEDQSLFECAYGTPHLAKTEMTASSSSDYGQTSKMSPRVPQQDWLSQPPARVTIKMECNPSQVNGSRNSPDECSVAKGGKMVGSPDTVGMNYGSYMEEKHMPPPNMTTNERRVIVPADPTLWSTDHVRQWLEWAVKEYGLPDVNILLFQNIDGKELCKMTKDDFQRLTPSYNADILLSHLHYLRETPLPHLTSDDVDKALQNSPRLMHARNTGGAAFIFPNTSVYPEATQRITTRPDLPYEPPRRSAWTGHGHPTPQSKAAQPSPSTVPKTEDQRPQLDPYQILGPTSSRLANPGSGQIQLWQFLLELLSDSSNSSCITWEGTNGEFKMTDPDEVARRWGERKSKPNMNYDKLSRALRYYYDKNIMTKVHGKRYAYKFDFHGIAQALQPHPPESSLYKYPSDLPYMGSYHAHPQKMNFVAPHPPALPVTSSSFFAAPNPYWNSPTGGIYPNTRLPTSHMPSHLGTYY

target: Transcriptional regulator ERG (Homo sapiens) (UniProt P11308); assay: qHTS for Small Molecule Inhibitors of the ERG Ets/DNA interaction: TR assay against cherry picks; details: ERG Ets domain-DNA fluorescence polarization, Texas red probe; at 154 µM (top of the series); note: % of control where 0% means no effect
In short: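 Polarization read sequentially for fluorescein (ex 480/em 535 nm) and Texas red (ex 555/em 632 nm) probes, 5 nM and 100 nM solutions, displaced from His-ERG Ets domain (1 uM solution), pH 7.5 Tris/KCl/EDTA/DTT buffer.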

Activity change, negative = inhibition, inactive:
O=C(O)CNC(=O)/C(=C\c1ccc2c(c1)OCO2)NC(=O)c1ccc(Br)cc1 3.73%, CC(=O)c1cccc(NC(=S)N2CCN(S(=O)(=O)c3ccc(F)cc3)CC2)c1 -4.67%, CCc1c(C(=O)N/N=C/c2sccc2C)nnn1-c1nonc1N 8.76%, Cc1ccc(C)c(N2CCN(C(=O)C(C)n3c(C)c4cnn(-c5ccccc5)c(=O)c4c3C)CC2)c1 (configuration not stated) 1.33%, Cc1noc(C)c1C(=O)NCc1cccs1 5.33%, Cc1ccc(/C=C2\Sc3ccccc3C2=O)s1 -2.68%, CCNC(=S)NC(=NCc1cccnc1)Nc1nc(C)cc(C)n1 -5.55%, Cc1cc(OCc2cc3c(cc2Cl)OCO3)c2c(C)cc(=O)oc2c1 19.4%, CS(=O)(=O)N1c2cccc3cccc(c23)S1(=O)=O -3.32%, CC(=O)Nc1ccc(S(=O)(=O)Nc2nc3ccccc3nc2Nc2ccc(O)c(C(=O)O)c2)cc1 83.7%, CC1(C)CC2CC(C)(CN2C(=O)c2ccc([N+](=O)[O-])cc2)C1 (configuration not stated) 0.742%, CN(Cc1ccccc1)C(=O)COC(=O)c1cc(=O)[nH]c2ccccc12 -6.97%, COCCN(Cc1cc2cc(C)ccc2n2nnnc12)C(=S)Nc1ccc(OC)cc1 3%, Nc1cnccc1C(=O)O 33.6%, CC(=O)Nc1ccc(S(=O)(=O)N2CCCC(C(=O)N3CCN(c4ccccc4)CC3)C2)cc1 (configuration not stated) 2.26%, O=C(CC1C[C@H](C(=O)N2CCOCC2)[C@@]2(CCC3CCCC3)c3[nH]c4ccccc4c3CCN2C1=O)NCC12CC3CC(CC(C3)C1)C2 (some centres not stated) -14.2%, C[C@@H]1CN([C@H](C)CO)C(=O)c2cc(NC(=O)Nc3ccc(F)cc3)ccc2O[C@H]1CN(C)C(=O)Nc1ccc(C(F)(F)F)cc1 -15.9%, CCNC(=S)N1CCC(C(O)(c2ccccc2)c2ccccc2)CC1 11.6%, C=CCOc1ccc(C(c2c(C(=O)O)[nH]c3ccccc23)c2c(C(=O)O)[nH]c3ccccc23)cc1 -13.4%, Cc1[nH]c2ccc(C(=O)OCC(=O)Nc3cccc(S(N)(=O)=O)c3)cc2c1C -7.29%, Cc1cccc(N2C(=O)CC(Cn3nc(C)cc3C)C2=O)c1 (configuration not stated) 3.34%, COc1ccc(CCNC(=O)CCNC(=O)c2ccco2)cc1 21.2%, Oc1ccc(NCc2ccc(OCc3ccccc3Cl)cc2)cc1 -17%, CNC(=O)CCSSCCC(=O)NC 0.288%, CSCC[C@H](NC(=O)OC(C)(C)C)C(=O)N1CCC(C(=O)N[C@@H](C)C(=O)NCc2ccc(F)cc2)CC1 -1.72%, CCC(Oc1ccccc1F)C(=O)NCCCn1ccnc1 (configuration not stated) 5.82%, CCc1ccc(NC(=O)/C(C#N)=C/c2cc3ccc(C)cc3nc2N2CCOCC2)cc1 24.7%, Cc1cc(C)cc(N2C(=O)c3nccnc3C2=O)c1 5.53%, CCOc1cc(CNCC2CCCN2CC)cc(Cl)c1OC (configuration not stated) 1.51%, CS(=O)(=O)N(CC(=O)Nc1ccccc1)c1cccc(Cl)c1Cl -21.4%, CCOc1ccc(-c2ncncc2-c2ccccc2OC)c(O)c1 -4.28%, Cc1nc(-c2ccc(F)cc2)c(CC(=O)Nc2ccc(C)c(S(=O)(=O)N3CCOCC3)c2)s1 -0.727%, Cc1cc2cc(CNC(=O)c3ccc(S(=O)(=O)N4CCCCC4)cc3)ccc2n1C 20.1%, CCOC(=O)c1oc2cc(OCC(=O)OC)ccc2c(=O)c1-c1ccc(OC)c(OC)c1 2.07%, COCCOC1CCN(Cc2cn(Cc3ccccc3)nc2-c2cc3ccccc3o2)CC1 -2.78%, COc1ccc(/C=C/C(=O)Nc2c(C(=O)O)[nH]c3ccccc23)cc1OC -17.3%, CC(NC(=O)c1ccco1)c1nc(-c2ccc(C(C)(C)C)cc2)no1 (configuration not stated) 0%, CCN(CC)c1ccc([N+](=O)[O-])cc1C(=O)O 5.41%, COc1ccc(CCNC(=O)Cn2c(=O)n(CCCC(=O)NCc3ccco3)c(=O)c3sccc32)cc1OC 1.75%, O=C(CN1CCCCC1)Nc1ccc(Br)cc1[N+](=O)[O-] -9.83%, CC(=O)NCc1ccc(S(=O)(=O)N2CCN(c3ccccn3)CC2)cc1 2.4%, COc1ccc(N2CC(NC(=O)c3ccc4c(c3)OCO4)CC2=O)cc1 (configuration not stated) -3.95%, NC(=O)c1ccc(N2CCN(c3ccccc3O)CC2)c([N+](=O)[O-])c1 -4.48%, CN(C)c1nc(N)nc(Cn2nnc(-c3ccc(C(F)(F)F)cc3)n2)n1 3.53%, Nc1nc(Cl)c2ncn(C3OC(CO)C(O)C3O)c2n1 (configuration not stated) 0%, O=C(NCc1ccc2c(c1)OCO2)C1CCN(S(=O)(=O)N2CCCCC2)CC1 5.53%, O=C1C(SCCO)=C(SCCO)C(=O)c2ccccc21 -12.1%, CNC(=S)NNc1nncc2ccccc12 -0.784%, COc1ccc(CC(=O)Nc2ccc(-c3nnc(-c4ccccc4)o3)cc2)cc1 5.64%, CCC(OC(=O)CN1C(=O)C(=O)c2ccccc21)C(=O)Nc1ccc(S(N)(=O)=O)cc1 (configuration not stated) 7.55%, Cc1ccc(NC(=O)Cn2cc(C(=O)C3CC3)c3ccccc32)c(C)c1 7.02%, COc1ccc(NC(=O)C2C3CCC(O3)C2C(=O)O)c(C)c1 (configuration not stated) 2.89%, CC1CCCC(NC(=O)COC(=O)/C=C/c2ccco2)C1C (configuration not stated) 2.09%, Cc1nc2nc[nH]n2c(=O)c1NS(=O)(=O)c1ccc(F)cc1 10.3%, Cc1cccc(NC(=O)c2ccccc2NC(=O)c2ccco2)c1 -3.95%, CCOC(=O)C1CCCN(C(=O)c2nn(-c3ccc(C)cc3)c(=O)n(C)c2=O)C1 (configuration not stated) -21.4%, Cc1cccc(-c2cnn(-c3cccc([N+](=O)[O-])c3)c2N)c1 -15.3%
